Measurements reported in PubChem BioAssay AID2685 (National Center for Advancing Translational Sciences (NCATS), 2010).
The list shows a part of the results. These are further read-outs of the screen, such as a control signal, another cell line or another target. No call is given for them. The list favours compounds with an active or inconclusive main result. Words in brackets tell the shape of the fitted curve; partial curves, single points and poor fits give uncertain potencies.

Test: qHTS Assay for Lipid Storage Modulators in Drosophila S3 Cells;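 on cell number change: cells counted by Cell Tracker Red CMTPX staining in the red channel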
Details: BODIPY lipid droplet fluorescence, 18-24 h; for cell number change: measured here: cell count max response, cells fed with added oleic acid
Method in brief: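 Drosophila S3 cells got compounds at several concentrations plus oleic acid (400 uM solution). Laser-scanning cytometry with 488 nm excitation read lipid droplets at 500-530 nm and cells at 575-640 nm. Percent activity was relative to 20 uM Triacsin C.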

[1] = measured here: cell number channel AC50, cells fed with added oleic acid
[2] = measured here: lipid fluorescence (Fed channel) AC50, cells fed with added oleic acid

SMILES | cell number change [%] | AC50 [1] | AC50 [2]
COc1ccccc1N1CCN(C(c2ccccc2Cl)c2nnnn2C(C)(C)C)CC1 (centres undefined) | -56.7 | 29.1 µM [falling, single point] | 2.59 µM [rising, partial curve]
O=C(O)CN1C(=O)/C(=C\c2cccc(OCc3ccc(Cl)cc3)c2)SC1=S | – | – | 29.1 µM [rising, single point]
Cc1nn(C(C)C(=O)NCCCN(Cc2ccccc2)C(C)C)c(=O)c2c1sc1ccccc12 (centres undefined) | – | – | 6.51 µM [rising, single point]
CN1C(c2ccc(F)cc2)=CS/C1=C(/C#N)c1nnc(N2CCOCC2)n1-c1ccccc1 | 12.2 | – | 1.84 µM [rising, single point]
CCOC(=O)CCc1c(C)nc(SCC(=O)O)c(C#N)c1C | 4.01 | – | 0.146 µM [rising, full curve]
Cn1c(O)c(N=NC(=O)CNC(=O)c2ccccc2)c2ccccc21 | -1.28 | 0.206 µM [falling, full curve, poor fit] | 5.17 µM [rising, single point]
CCN(CC)CCCN1C(=O)C(=O)/C(=C(/O)c2ccc(OC)c(Cl)c2)C1c1ccco1 (centres undefined) | -6.73 | – | 1.03 µM [falling, full curve]
Cc1ccc(-n2nc3c(c2NC(=O)/C=C\c2ccc4c(c2)OCO4)CSC3)cc1 | 1.87 | – | –
COc1ccc(NC(=O)C2CCN(c3nc(-c4ccc(OC)cc4)no3)CC2)cc1 | 31.4 | 8.2 µM [rising, partial curve, poor fit] | 0.13 µM [rising, full curve, poor fit]
O=C(CSc1nc2c(cnn2-c2ccc(F)cc2)c(=O)[nH]1)N1CCCc2ccccc21 | -27.4 | – | 2.06 µM [falling, partial curve]
O=C(COc1ccccc1F)Nc1ccc(-c2nc3ccccc3s2)cc1 | 17.3 | – | 23.1 µM [rising, partial curve]
COc1ccc(C(=O)NCc2nnc(SCC(=O)N3CCCCCC3)o2)cc1OC | -15.2 | – | 32.6 µM [rising, single point]
O=C(OCC(=O)C12CC3CC(CC(C3)C1)C2)c1ccc(O)cc1O | -65.7 | 23.1 µM [falling, single point] | 18.4 µM [falling, single point]
NNc1nnc(-c2ccccc2)c(-c2ccccc2)n1 | 0.799 | – | 0.0206 µM [rising, full curve, poor fit]
CCN(CC)C(=O)c1cc2c(=O)c3cc(Cl)ccc3oc2nc1C | 5.33 | – | –
CCCCC(=O)/C=C/n1c(=S)oc2ccccc21 | -26.4 | – | –
CC1CCN(CCCn2c(=S)[nH]c3c(sc4ccccc43)c2=O)CC1 | -2.18 | 2.59 µM [falling, partial curve] | 5.17 µM [falling, single point]
Cc1ccc(NC(=S)NC(C)(C)C)c([N+](=O)[O-])c1 | -21.7 | – | 6.51 µM [falling, partial curve, poor fit]
COc1cccc(NC(=O)c2nn(C)c(C(=O)Nc3cccc(OC)c3)c2[N+](=O)[O-])c1 | -6.04 | – | –
CCOC(=O)CCc1c(C)c2ccc(OC3CCCCC3=O)c(C)c2oc1=O (centres undefined) | -39.3 | – | 13 µM [falling, partial curve, poor fit]

SMILES | cell number change [%] | AC50 [1] | AC50 [2]
O=C(CSc1ccccc1)Nc1nnc(COc2ccc(Cl)cc2)s1 | – | – | 1.46 µM [falling, full curve]
CSc1ncccc1C(=O)NCc1ccc(C)cc1 | -25.7 | 4.11 µM [falling, full curve, poor fit] | –
CCOc1ccc(C2c3c(oc4ccccc4c3=O)C(=O)N2CCCN2CCOCC2)cc1OCC (centres undefined) | 11.7 | – | 0.651 µM [falling, single point]
COCc1cc(C)nc(SCC(=O)Nc2nc(C)cs2)c1C#N | -9.91 | – | 6.51 µM [falling, partial curve, poor fit]
O=C(CN1CCCC1)N1c2ccccc2Sc2ccccc21 | 32.7 | 16.4 µM [rising, single point] | 0.0103 µM [falling, full curve, poor fit]
C=CCOC(=O)C(C#N)c1nc2ccccc2nc1N1CCN(c2ccccc2OC)CC1 (centres undefined) | -3.23 | – | 0.651 µM [rising, partial curve]
Cc1cc2occ(CC(=O)NNC(=O)c3ccccc3)c2cc1C | 14.2 | – | 0.411 µM [rising, full curve]
Cc1ccc(NS(=O)(=O)c2ccc(C)c(NC(=O)COc3ccc4ccccc4c3)c2)c(C)c1 | 81.2 | – | 29.1 µM [falling, single point]
C=C(C)COc1ccc(-c2n[nH]c(C)c2-c2ccc(Br)cc2)c(O)c1 | -63.5 | 32.6 µM [falling, single point] | 32.6 µM [falling, single point]
Cc1ccc(C)c(N2CCN(C3CCCCC3NS(=O)(=O)c3ccccc3)CC2)c1 (centres undefined) | 30.9 | 32.6 µM [rising, single point] | 25.9 µM [rising, partial curve]
O=C(CCCOc1ccc(Cl)cc1)NCCc1ccccc1 | 21.6 | – | 0.291 µM [rising, single point]
CCN1CCN(C(=O)N[C@@H](C(=O)N[C@@H]2C(=O)N3[C@@H]2SC(C)(C)[C@@H]3C(=O)O)c2ccccc2)C(=O)C1=O | -1.55 | 0.0731 µM [rising, full curve, poor fit] | –
CN1CCN(S(=O)(=O)c2ccc([N+](=O)[O-])cc2)CC1 | 17.9 | 0.103 µM [rising, full curve, poor fit] | –
COc1ccc(Nc2nnc(SCC(=O)N3CCCC3)s2)cc1 | – | 1.84 µM [rising, partial curve] | 2.06 µM [rising, full curve]
CCOc1ccc(-n2c(SCC(N)=O)nc3c([nH]c4ccccc43)c2=O)cc1 | 12.5 | – | –
COc1ccc(NC(=O)CSc2nc(N)c(NC(=O)c3cccs3)c(=O)[nH]2)cc1 | -7.21 | – | –
COc1nnc(-c2ccc(N3CCOCC3)c(NC(=O)c3ccc(C)cc3)c2)c2ccccc12 | – | – | 6.51 µM [falling, single point]
CCCCOc1ccc(C(=O)CCN2CCOCC2)cc1 | -169 | 23.1 µM [falling, single point] | 29.1 µM [falling, single point]
O=C(O)[C@H](Cc1ccccc1)NC(=O)N1CCOCC1 | -5.45 | – | 0.58 µM [falling, partial curve, poor fit]
Cc1ccsc1/C=C(\C#N)C(=O)NCc1cccnc1 | 14.3 | – | 2.59 µM [rising, partial curve, poor fit]

SMILES | cell number change [%] | AC50 [1] | AC50 [2]
O=C(OCC(=O)N1CCCCC1)c1n[nH]c(=O)c2ccccc12 | -19.7 | – | –
CCCCN1c2cc(C)c(O)cc2C(C(=O)OCC)C1C (centres undefined) | 11.2 | – | 4.61 µM [falling, single point]
Cc1ccc2nc(-c3ccc(O)cc3)c(Nc3ccc4c(c3)OCCO4)n2c1 | 15.2 | – | 0.517 µM [rising, full curve, poor fit]
Cc1cc(NS(=O)(=O)c2ccc(NC(=O)NC3CCCCC3)cc2)no1 | – | 0.651 µM [rising, partial curve] | –
Cc1c(C(=O)Nc2nnc(C3CC3)s2)oc2ccccc12 | 9.24 | 5.17 µM [falling, single point] | 0.00461 µM [rising, full curve, poor fit]
Cc1cccc(C=Nc2ccccc2C(N)=O)c1 | -55.7 | 29.1 µM [falling, single point] | –
CCOC(=O)c1sc(=S)n(CC)c1NC(=O)CC | -4.08 | 6.51 µM [falling, single point] | –
COc1ccc(CCNC(=O)C(C)c2ccc([N+](=O)[O-])cc2)cc1 (centres undefined) | 66.2 | 29.1 µM [rising, single point] | 20.6 µM [rising, single point]
Cn1c(CNC(=O)c2ccco2)nnc1SCC(=O)Nc1cccc(F)c1 | 25.3 | – | –
CCNc1oc(-c2ccc(OC)cc2)nc1S(=O)(=O)c1ccc(Br)cc1 | 34.6 | – | –
O=C1c2ccccc2C(O)N1c1ccc(Cl)cc1 (centres undefined) | 3.69 | – | 0.58 µM [rising, full curve, poor fit]
CCOC(=O)c1c(NC(C)=O)sc2c1CCC(C=O)=C2Sc1ccccc1 | -18.2 | 2.31 µM [rising, partial curve, poor fit] | 3.66 µM [rising, partial curve]
COc1ccc(-c2nc(-c3cccs3)c(-c3cccs3)[nH]2)cc1OC | – | 0.82 µM [rising, full curve] | 1.46 µM [rising, partial curve]
COc1ccccc1N1CCN(C(=O)c2cn(-c3ccccc3)nc2-c2cccnc2)CC1 | -8.86 | – | –
C/C(=N/NC(=O)CNC(=O)c1ccco1)c1ccc(Cl)cc1 | -8.66 | – | 0.13 µM [falling, full curve, poor fit]
OCCC1CN(Cc2ccc(-c3ccco3)cc2)CCN1Cc1ccsc1 (centres undefined) | -0.748 | – | –
CC1COc2ccccc2N1C(=O)c1cccnc1Cl (centres undefined) | 14.6 | – | 0.411 µM [rising, full curve, poor fit]
O=C(Cc1cccs1)N/N=C/C=C/c1ccco1 | 0.559 | – | 32.6 µM [rising, single point]
N#CCSc1nc(N)c(C#N)c(C2CCCCC2)c1C#N | 18.7 | – | 20.6 µM [rising, partial curve, poor fit]

3 compounds from above, arranged by length of the SMILES, rising.
SMILES | cell number change [%] | AC50 [1] | AC50 [2]
Cc1cccc(C=Nc2ccccc2C(N)=O)c1 | -55.7 | 29.1 µM [falling, single point] | –
OCCC1CN(Cc2ccc(-c3ccco3)cc2)CCN1Cc1ccsc1 (centres undefined) | -0.748 | – | –
CCNc1oc(-c2ccc(OC)cc2)nc1S(=O)(=O)c1ccc(Br)cc1 | 34.6 | – | –
